# The list shows a part of the results.
# Key:
# Experiment in all cases: glycan array binding signal (z-score within array); higher = stronger binding
# Details in all cases: glycan notation: IUPAC condensed, linker removed
# Kdn(a2-3)Gal(b1-4)Glc = target: Kdn(a2-3)Gal(b1-4)Glc
# Outline: (§1)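 The binding signal is a Z-score computed within each array and averaged over linkers. Arrays of the same protein sequence at different concentrations or buffers were also averaged together. Data originate from 3228 arrays in the Consortium for Functional Glycomics database, kept only where the protein sequence was available.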
# Kdn(a2-3)Gal(b1-4)GlcNAc = target: Kdn(a2-3)Gal(b1-4)GlcNAc
# Outline: as §1
# [1] = target: Kdn(a2-3)Gal(b1-4)[Fuc(a1-3)]GlcNAc
# Outline: as §1
# Kdn(a2-6)Gal(b1-4)GlcNAc = target: Kdn(a2-6)Gal(b1-4)GlcNAc
# Outline: as §1
# [2] = target: Man(a1-2)Man(a1-2)Man(a1-3)Man
# Outline: as §1
# [3] = target: Man(a1-2)Man(a1-2)Man(a1-6)[Man(a1-3)]Man
# Outline: as §1
# Man(a1-2)Man(a1-3)Man = target: Man(a1-2)Man(a1-3)Man
# Outline: as §1
# [4] = target: Man(a1-2)Man(a1-3)[Man(a1-2)Man(a1-6)]Man
# Outline: as §1
# [5] = target: Man(a1-2)Man(a1-3)[Man(a1-2)Man(a1-6)]Man(a1-6)[Man(a1-2)Man(a1-2)Man(a1-3)]Man
# Outline: as §1
# [6] = target: Man(a1-2)Man(a1-3)[Man(a1-2)Man(a1-6)]Man(a1-6)[Man(a1-2)Man(a1-2)Man(a1-3)]Man(b1-4)GlcNAc(b1-4)GlcNAc
# Outline: as §1
# [7] = target: Man(a1-2)Man(a1-3)[Man(a1-6)]Man(a1-6)[Man(a1-2)Man(a1-3)]Man(b1-4)GlcNAc(b1-4)GlcNAc
# Outline: as §1
# [8] = target: Man(a1-2)Man(a1-6)[Man(a1-3)]Man(a1-6)[Man(a1-2)Man(a1-2)Man(a1-3)]Man
# Outline: as §1
# [9] = target: Man(a1-2)Man(a1-6)[Man(a1-3)]Man(a1-6)[Man(a1-2)Man(a1-2)Man(a1-3)]Man(b1-4)GlcNAc(b1-4)GlcNAc
# Outline: as §1
# Man(a1-3)[Man(a1-6)]Man = target: Man(a1-3)[Man(a1-6)]Man
# Outline: as §1
# [10] = target: Man(a1-3)[Man(a1-6)]Man(a1-6)[Man(a1-2)Man(a1-3)]Man(b1-4)GlcNAc(b1-4)GlcNAc
# Outline: as §1
# [11] = target: Man(a1-3)[Man(a1-6)]Man(a1-6)[Man(a1-3)]Man
# Outline: as §1
# [12] = target: Man(a1-3)[Man(a1-6)]Man(a1-6)[Man(a1-3)]Man(b1-4)GlcNAc(b1-4)GlcNAc
# Outline: as §1
# [13] = target: Man(a1-3)[Man(a1-6)]Man(b1-4)GlcNAc(b1-4)GlcNAc
# Outline: as §1
# [14] = target: Man(a1-3)[Man(a1-6)]Man(b1-4)GlcNAc(b1-4)[Fuc(a1-6)]GlcNAc
# Outline: as §1
# Man(a1-6)Man = target: Man(a1-6)Man
# Outline: as §1
# Man(b1-4)GlcNAc = target: Man(b1-4)GlcNAc
# Outline: as §1
# MurNAc(b1-4)GlcNAc = target: MurNAc(b1-4)GlcNAc
# Outline: as §1
# Neu5Ac(a2-3)Gal = target: Neu5Ac(a2-3)Gal
# Outline: as §1
# [15] = target: Neu5Ac(a2-3)Gal(b1-3)GalNAc
# Outline: as §1
# [16] = target: Neu5Ac(a2-3)Gal(b1-3)GalNAc(b1-3)Gal(a1-4)Gal(b1-4)Glc
# Outline: as §1
# [17] = target: Neu5Ac(a2-3)Gal(b1-3)GalNAc(b1-4)[Neu5Ac(a2-3)]Gal(b1-4)Glc
# Outline: as §1
# [18] = target: Neu5Ac(a2-3)Gal(b1-3)GalNAc(b1-4)[Neu5Ac(a2-8)Neu5Ac(a2-3)]Gal(b1-4)Glc
# Outline: as §1
# [19] = target: Neu5Ac(a2-3)Gal(b1-3)GalNAc6S
# Outline: as §1
# [20] = target: Neu5Ac(a2-3)Gal(b1-3)GlcNAc
# Outline: as §1
# [21] = target: Neu5Ac(a2-3)Gal(b1-3)GlcNAc(b1-2)Man
# Outline: as §1
# [22] = target: Neu5Ac(a2-3)Gal(b1-3)GlcNAc(b1-2)Man(a1-3)[GlcNAc(b1-4)][Neu5Ac(a2-3)Gal(b1-3)GlcNAc(b1-2)Man(a1-6)]Man(b1-4)GlcNAc(b1-4)GlcNAc
# Outline: as §1
# [23] = target: Neu5Ac(a2-3)Gal(b1-3)GlcNAc(b1-2)Man(a1-3)[Neu5Ac(a2-3)Gal(b1-3)GlcNAc(b1-2)Man(a1-6)]Man(b1-4)GlcNAc(b1-4)GlcNAc
# Outline: as §1
# [24] = target: Neu5Ac(a2-3)Gal(b1-3)GlcNAc(b1-3)Gal(b1-3)GlcNAc
# Outline: as §1
# [25] = target: Neu5Ac(a2-3)Gal(b1-3)GlcNAc(b1-3)Gal(b1-4)GlcNAc
# Outline: as §1
# [26] = target: Neu5Ac(a2-3)Gal(b1-3)GlcNAc(b1-3)GalNAc
# Outline: as §1
# [27] = target: Neu5Ac(a2-3)Gal(b1-3)GlcNAc(b1-4)Gal(b1-4)Glc
# Outline: as §1
# [28] = target: Neu5Ac(a2-3)Gal(b1-3)GlcNAc(b1-6)GalNAc
# Outline: as §1
# [29] = target: Neu5Ac(a2-3)Gal(b1-3)GlcNAc6S
# Outline: as §1
binder,measurement,setting,value
PX14343C-bfa-541-26-541 (Bacteroides fragilis) (protein) KAPLDEIADDSFWSDETLVKYYVNDLYSEISVDGLQLQENRSDNSVSAQRDKYRASWFKFNYDMVSASDPQDDDVWEDYYVKVRKCNRFFERIGTSTIEESEKSRLTGEVHFLRAMFYFEMVKRYGGVILLDKVLTMEDNWEIPRSSEKECYDFILEDLKKATEMLPASYGSREKGRATKGAAYALKSRVELYDKRYEDVIKSCAEVYKLGYELVDGTTPEKYRSIWWTTNKDNKEIIFDVQYKSPDVYNNMMVCNMVTYINDKYGDRGWGGLGPTQELIDAFEMADGTPATQYSQAPADQVFDINTCGIYEGREPRFYANIVFHGSQIFFNADKGAVTVDRYLMDTPDKGDGSLTGYNVWKWIDYDNYNYPYAGAGSPDFSTNWIILRYAEIYLNDAEARLETGDVEGARKAVNMIRQRVGLPDLTESDPEKLRELIRKERRIEFAFEEQRFYDVRRWKIGPETQTTLHGVRFVSPTEFKVTKTDIRTWNDRLYLTPVPHDEIVRSSVLKQNLGY,glycan array binding signal (z-score),Kdn(a2-3)Gal(b1-4)Glc,-0.776
same,glycan array binding signal (z-score),Kdn(a2-3)Gal(b1-4)GlcNAc,-0.977
same,glycan array binding signal (z-score),[1],1.81
same,glycan array binding signal (z-score),Kdn(a2-6)Gal(b1-4)GlcNAc,-0.189
same,glycan array binding signal (z-score),[2],-0.962
same,glycan array binding signal (z-score),[3],-0.015
same,glycan array binding signal (z-score),Man(a1-2)Man(a1-3)Man,-0.305
same,glycan array binding signal (z-score),[4],1.01
same,glycan array binding signal (z-score),[5],-0.595
same,glycan array binding signal (z-score),[6],0.285
same,glycan array binding signal (z-score),[7],0.476
same,glycan array binding signal (z-score),[8],-0.799
same,glycan array binding signal (z-score),[9],-0.535
same,glycan array binding signal (z-score),Man(a1-3)[Man(a1-6)]Man,-0.524
same,glycan array binding signal (z-score),[10],0.931
same,glycan array binding signal (z-score),[11],0.127
same,glycan array binding signal (z-score),[12],-0.482
same,glycan array binding signal (z-score),[13],-0.046
same,glycan array binding signal (z-score),[14],-0.814
same,glycan array binding signal (z-score),Man(a1-6)Man,0.137
same,glycan array binding signal (z-score),Man(b1-4)GlcNAc,-0.535
same,glycan array binding signal (z-score),MurNAc(b1-4)GlcNAc,-0.32
same,glycan array binding signal (z-score),Neu5Ac(a2-3)Gal,-0.737
same,glycan array binding signal (z-score),[15],-0.143
same,glycan array binding signal (z-score),[16],0.978
same,glycan array binding signal (z-score),[17],0.2
same,glycan array binding signal (z-score),[18],-1.04
same,glycan array binding signal (z-score),[19],-0.571
same,glycan array binding signal (z-score),[20],-0.292
same,glycan array binding signal (z-score),[21],-0.541
same,glycan array binding signal (z-score),[22],-0.943
same,glycan array binding signal (z-score),[23],-0.219
same,glycan array binding signal (z-score),[24],-0.527
same,glycan array binding signal (z-score),[25],-0.242
same,glycan array binding signal (z-score),[26],0.246
same,glycan array binding signal (z-score),[27],-0.563
same,glycan array binding signal (z-score),[28],-0.782
same,glycan array binding signal (z-score),[29],0.836

# Ten successive entries out of the list so far, quoted:
binder,measurement,setting,value
PX14343C-bfa-541-26-541 (Bacteroides fragilis) (protein) KAPLDEIADDSFWSDETLVKYYVNDLYSEISVDGLQLQENRSDNSVSAQRDKYRASWFKFNYDMVSASDPQDDDVWEDYYVKVRKCNRFFERIGTSTIEESEKSRLTGEVHFLRAMFYFEMVKRYGGVILLDKVLTMEDNWEIPRSSEKECYDFILEDLKKATEMLPASYGSREKGRATKGAAYALKSRVELYDKRYEDVIKSCAEVYKLGYELVDGTTPEKYRSIWWTTNKDNKEIIFDVQYKSPDVYNNMMVCNMVTYINDKYGDRGWGGLGPTQELIDAFEMADGTPATQYSQAPADQVFDINTCGIYEGREPRFYANIVFHGSQIFFNADKGAVTVDRYLMDTPDKGDGSLTGYNVWKWIDYDNYNYPYAGAGSPDFSTNWIILRYAEIYLNDAEARLETGDVEGARKAVNMIRQRVGLPDLTESDPEKLRELIRKERRIEFAFEEQRFYDVRRWKIGPETQTTLHGVRFVSPTEFKVTKTDIRTWNDRLYLTPVPHDEIVRSSVLKQNLGY,glycan array binding signal (z-score),[4],1.01
same,glycan array binding signal (z-score),[5],-0.595
same,glycan array binding signal (z-score),[6],0.285
same,glycan array binding signal (z-score),[7],0.476
same,glycan array binding signal (z-score),[8],-0.799
same,glycan array binding signal (z-score),[9],-0.535
same,glycan array binding signal (z-score),Man(a1-3)[Man(a1-6)]Man,-0.524
same,glycan array binding signal (z-score),[10],0.931
same,glycan array binding signal (z-score),[11],0.127
same,glycan array binding signal (z-score),[12],-0.482
